For this test, the target named is SQSTM1/p62 (human (endogenous in HLE-B3)) (UniProt Q13501). The test is described as follows: co-IP; endogenous proteins; WT and ATG7 KO HLE-B3 cells treated with 200 μM H2O2 for indicated times; lysed in ice-cold NP-40 buffer with PMSF and phosphatase inhibitors; 2 μg/ml antibody (anti-p62, PKCι, RIP1 or TRAF6) overnight at 4 °C, protein G dynabeads 2 h at RT; immunoblot.

The chains behind the UniProt entries cited, without tags or fusion partners.
UniProt Q13546: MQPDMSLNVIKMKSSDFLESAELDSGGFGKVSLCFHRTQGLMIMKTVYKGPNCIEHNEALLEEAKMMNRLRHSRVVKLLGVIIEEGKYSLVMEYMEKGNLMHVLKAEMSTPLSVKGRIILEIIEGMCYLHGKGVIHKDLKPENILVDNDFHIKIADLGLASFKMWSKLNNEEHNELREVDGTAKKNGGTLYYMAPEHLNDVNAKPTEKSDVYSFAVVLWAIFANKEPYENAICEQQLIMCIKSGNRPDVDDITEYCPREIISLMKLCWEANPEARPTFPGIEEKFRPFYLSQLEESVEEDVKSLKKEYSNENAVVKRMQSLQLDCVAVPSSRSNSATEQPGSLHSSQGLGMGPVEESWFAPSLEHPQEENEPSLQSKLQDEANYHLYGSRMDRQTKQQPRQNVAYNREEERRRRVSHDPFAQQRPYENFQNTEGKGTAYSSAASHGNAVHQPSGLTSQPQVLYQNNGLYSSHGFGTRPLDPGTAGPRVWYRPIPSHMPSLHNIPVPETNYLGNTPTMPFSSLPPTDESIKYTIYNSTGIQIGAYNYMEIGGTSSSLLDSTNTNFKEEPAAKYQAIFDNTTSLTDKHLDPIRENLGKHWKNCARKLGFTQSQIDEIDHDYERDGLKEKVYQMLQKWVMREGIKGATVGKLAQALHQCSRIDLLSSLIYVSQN

No constants are given. Whether binding was seen depends on the method and setting. Binding seen in cells or lysates may run through a third protein. Some binding calls cover weakened binding; strength is not graded here.

Among the data in paper PMC8748728 are binding values, retold here.

Take “RIP1 (receptor-interacting protein kinase 1) (from UniProt Q13546 1-671)”: the binding entry is recorded as “binds”.

B1: PKCι (protein, UniProt P41743 1-596)
chain: MPTQRDSSTMSHTVAGGGSGDHSHQVRVKAYYRGDIMITHFEPSISFEGLCNEVRDMCSFDNEQLFTMKWIDEEGDPCTVSSQLELEEAFRLYELNKDSELLIHVFPCVPERPGMPCPGEDKSIYRRGARRWRKLYCANGHTFQAKRFNRRAHCAICTDRIWGLGRQGYKCINCKLLVHKKCHKLVTIECGRHSLPQEPVMPMDQSSMHSDHAQTVIPYNPSSHESLDQVGEEKEAMNTRESGKASSSLGLQDFDLLRVIGRGSYAKVLLVRLKKTDRIYAMKVVKKELVNDDEDIDWVQTEKHVFEQASNHPFLVGLHSCFQTESRLFFVIEYVNGGDLMFHMQRQRKLPEEHARFYSAEISLALNYLHERGIIYRDLKLDNVLLDSEGHIKLTDYGMCKEGLRPGDTTSTFCGTPNYIAPEILRGEDYGFSVDWWALGVLMFEMMAGRSPFDIVGSSDNPDQNTEDYLFQVILEKQIRIPRSLSVKAASVLKSFLNKDPKERLGCHPQTGFADIQGHPFFRNVDWDMMEQKQVVPPFKPNISGEFGLDNFDSQFTNEPVQLTPDDDDIVRKIDQSEFEGFEYINPLLMSAEECV
As to B1, the binding entry is given as “binds”.
